Data as given in PubChem BioAssay AID493246 (Drosophila RNAi Screening Center, 2011)
The deposit covers about 21,000 reagents; this is an unselected part of those that have a named target and a result. Over the whole deposit, 429 (2%) got an active call. 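Values are raw and not normalised between plates; calls rest on per-plate z-scores that were not deposited.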 The numbers tell different reagents against one gene apart. Names joined by + are all predicted targets of the reagent. Not given: the amount of reagent, the time to read-out.

Screen: 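Genome-wide search for dsRNAs that reduce cell number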 (primary screen)
Cells: Drosophila Kc and S2R+ cells
Reagents: long dsRNA against Drosophila genes
Measurement: 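Cell number per well after knock-down, printed as raw plate values; calls were based on per-plate z-scores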
Direction: Kc cell number and S2R+ cell number: higher = more cells remaining
Hit rule: 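Active when the per-plate z-score of cell number is 3 or more in the direction of fewer cells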

Gene | reagent | Kc cell number, rep 1 | Kc cell number, rep 2 | S2R+ cell number, rep 1 | S2R+ cell number, rep 2 | activity call
CG4615 (GeneID 31656) | 1 | 1.50e6 | 1.72e6 | 1.00e6 | 1.15e6 | inactive
CG4615 (GeneID 31656) | 2 | 4.62e5 | – | 6.45e5 | – | inactive
CG14984 (GeneID 38467) | 1 | 1.45e6 | 1.30e6 | 9.68e5 | 1.21e6 | inactive
CG10516 (GeneID 39738) | 1 | 1.33e6 | 1.49e6 | 1.27e6 | 1.32e6 | inactive
Enoph (GeneID 40630) | 1 | 1.62e6 | 1.78e6 | 1.38e6 | 1.59e6 | inactive
CG11327 (GeneID 33940) | 1 | 1.46e6 | 1.36e6 | 1.13e6 | 1.26e6 | inactive
CG43861 (GeneID 35284) | 1 | 1.44e6 | 1.53e6 | 1.29e6 | 2.96e5 | inactive
CG6996 (GeneID 40212) | 1 | 1.64e6 | 1.75e6 | 1.23e6 | 1.40e6 | inactive
CG18537 (GeneID 37094) | 1 | 1.55e6 | 1.56e6 | 1.17e6 | 1.25e6 | inactive
CR11235 (GeneID 10178883) | 1 | 1.60e6 | 1.58e6 | 1.07e6 | 1.25e6 | inactive
Cul4 (GeneID 35780) | 1 | 1.29e6 | 1.36e6 | 6.59e5 | 7.91e5 | inactive
Skp2 (GeneID 40548) | 1 | 1.75e6 | 1.83e6 | 1.54e6 | 1.62e6 | inactive
CG17824 (retired record) (GeneID 39361) | 1 | 1.36e6 | 1.54e6 | 1.39e6 | 1.53e6 | inactive
Lon (GeneID 40138) | 1 | 1.41e6 | 1.47e6 | 1.25e6 | 1.27e6 | inactive
CG34292 (GeneID 5740196) | 1 | 1.29e6 | 1.48e6 | 1.05e6 | 1.07e6 | inactive
Camp (GeneID 36948) | 1 | 1.50e6 | 1.56e6 | 1.18e6 | 1.27e6 | inactive
SdhCL (GeneID 41324) | 1 | 1.74e6 | 1.80e6 | 1.41e6 | 1.49e6 | inactive
ND-B14.5B (GeneID 33528) | 1 | 1.55e6 | 1.52e6 | 1.12e6 | 1.25e6 | inactive
CG32260 (GeneID 317943) | 1 | 1.49e6 | 1.50e6 | 1.03e6 | 1.14e6 | inactive
l(3)72Dn (GeneID 39774) | 1 | 1.62e6 | 1.69e6 | 1.47e6 | 1.54e6 | inactive
geminin (GeneID 35563) | 1 | 1.07e6 | 1.11e6 | 1.01e6 | 1.31e6 | active
Slimp (GeneID 318604) | 1 | 1.03e6 | 1.24e6 | 1.04e6 | 1.07e6 | inactive
Pcd (GeneID 43499) | 1 | 1.45e6 | 1.47e6 | 9.89e5 | 1.05e6 | inactive
CG17186 (GeneID 42363) | 1 | 1.46e6 | 1.40e6 | 1.18e6 | 1.19e6 | inactive
eIF3f2 (GeneID 35547) | 1 | 1.64e6 | 1.81e6 | 1.46e6 | 1.54e6 | inactive
trem (GeneID 42392) | 1 | 1.38e6 | 1.36e6 | 1.10e6 | 1.14e6 | inactive
CG30259 (GeneID 37606) | 1 | 1.54e6 | 1.58e6 | 1.25e6 | 1.37e6 | inactive
CG30259 (GeneID 37606) | 2 | 1.50e6 | 1.55e6 | 1.27e6 | 1.25e6 | inactive

Not a retest: 5 of the entries above.
Gene | reagent | Kc cell number, rep 1 | Kc cell number, rep 2 | S2R+ cell number, rep 1 | S2R+ cell number, rep 2 | activity call
CG34292 (GeneID 5740196) | 1 | 1.29e6 | 1.48e6 | 1.05e6 | 1.07e6 | inactive
Camp (GeneID 36948) | 1 | 1.50e6 | 1.56e6 | 1.18e6 | 1.27e6 | inactive
SdhCL (GeneID 41324) | 1 | 1.74e6 | 1.80e6 | 1.41e6 | 1.49e6 | inactive
ND-B14.5B (GeneID 33528) | 1 | 1.55e6 | 1.52e6 | 1.12e6 | 1.25e6 | inactive
CG32260 (GeneID 317943) | 1 | 1.49e6 | 1.50e6 | 1.03e6 | 1.14e6 | inactive

Further results follow:
Gene | reagent | Kc cell number, rep 1 | Kc cell number, rep 2 | S2R+ cell number, rep 1 | S2R+ cell number, rep 2 | activity call
Cyp9c1 (GeneID 37941) | 1 | 1.41e6 | 1.51e6 | 1.19e6 | 1.33e6 | inactive
Cpr67Fa1 (GeneID 39223) | 1 | 1.30e6 | 1.36e6 | 1.25e6 | 1.27e6 | inactive
brv3 (GeneID 31246) | 1 | 1.46e6 | 1.46e6 | 9.55e5 | 1.05e6 | inactive
natalisin (GeneID 5740700) | 1 | 1.31e6 | 1.36e6 | 9.85e5 | 1.01e6 | inactive
natalisin (GeneID 5740700) | 2 | 1.59e6 | 1.61e6 | 1.19e6 | 1.31e6 | inactive
hpRNA:CR18854 + IP3K1 | 1 | 1.31e6 | 1.42e6 | 1.04e6 | 1.16e6 | inactive
Pdxk (GeneID 39066) | 1 | 1.72e6 | 1.67e6 | 1.21e6 | 1.49e6 | inactive
Obp83ef (GeneID 40747) | 1 | 1.48e6 | 1.61e6 | 1.29e6 | 1.36e6 | inactive
CG33490 (GeneID 2768970) | 1 | 1.36e6 | 1.39e6 | 1.24e6 | 1.15e6 | inactive
brp (GeneID 35977) | 1 | 1.53e6 | 1.57e6 | 1.27e6 | 1.45e6 | inactive
brp (GeneID 35977) | 2 | 1.52e6 | 1.54e6 | 1.27e6 | 1.39e6 | inactive
brp (GeneID 35977) | 3 | 1.59e6 | 1.60e6 | 1.25e6 | 1.44e6 | inactive
CG8475 (GeneID 34114) | 1 | 1.27e6 | 1.28e6 | 5.93e5 | 8.87e5 | inactive
Xrp1 (GeneID 42267) | 1 | 2.89e5 | 3.54e5 | 3.49e5 | 4.46e5 | active
Xrp1 (GeneID 42267) | 2 | 1.14e6 | 1.26e6 | 8.45e5 | 8.77e5 | inactive
Uck (GeneID 42894) | 1 | 1.17e6 | 1.52e6 | 1.12e6 | 1.14e6 | inactive
Uck (GeneID 42894) | 2 | 1.48e6 | 1.46e6 | 8.98e5 | 1.02e6 | inactive
CG32457 (GeneID 318040) | 1 | 1.39e6 | 1.64e6 | 1.05e6 | 1.18e6 | inactive
wuho (GeneID 31566) | 1 | 1.47e6 | 1.42e6 | 9.70e5 | 1.12e6 | inactive
Krn (GeneID 326198) | 1 | 1.28e6 | 1.31e6 | 1.18e6 | 1.21e6 | inactive
CG33919 (GeneID 3772720) | 1 | 1.57e6 | 1.62e6 | 1.03e6 | 1.18e6 | inactive
TTLL5 (GeneID 43015) | 1 | 1.62e6 | 1.66e6 | 1.31e6 | 1.38e6 | inactive
CG6974 (GeneID 41815) | 1 | 1.23e6 | 1.33e6 | 1.16e6 | 1.25e6 | inactive
U2af38 (GeneID 33201) | 1 | 1.02e6 | 1.20e6 | 6.22e5 | 7.17e5 | inactive
CG15332 (GeneID 31714) | 1 | 1.56e6 | 1.52e6 | 1.01e6 | 1.10e6 | inactive
CG15260 (GeneID 34899) | 1 | 1.49e6 | 1.59e6 | 1.26e6 | 1.40e6 | inactive
Reph (GeneID 47399) | 1 | 1.39e6 | 1.45e6 | 1.13e6 | 1.13e6 | inactive
CG6983 (GeneID 38964) | 1 | 1.40e6 | 1.46e6 | 1.27e6 | 1.15e6 | inactive
CG31064 (GeneID 43277) | 1 | 1.74e6 | 1.83e6 | 1.10e6 | 1.27e6 | inactive
CG31064 (GeneID 43277) | 2 | 1.51e6 | 1.50e6 | 1.05e6 | 1.13e6 | inactive
CG31064 (GeneID 43277) | 3 | 1.51e6 | 1.50e6 | 9.78e5 | 1.10e6 | inactive
CG31064 (GeneID 43277) | 4 | 1.58e6 | 1.64e6 | 9.13e5 | 1.02e6 | inactive
CG6333 (GeneID 39953) | 1 | 1.52e6 | 1.66e6 | 1.37e6 | 1.50e6 | inactive
CG15225 (GeneID 37354) | 1 | 1.80e6 | 1.87e6 | 1.22e6 | 2.78e5 | inactive
pont (GeneID 53439) | 1 | 1.55e6 | 1.53e6 | 1.22e6 | 1.29e6 | inactive
Nup58 (GeneID 42342) | 1 | 1.31e6 | 1.27e6 | 9.79e5 | 1.09e6 | inactive
CG10793 (GeneID 31308) | 1 | 1.69e6 | 1.80e6 | 1.12e6 | 1.31e6 | inactive
Mst57Da + alpha4GT2 | 1 | 1.30e6 | 1.66e6 | 1.12e6 | 9.22e5 | inactive
CG17121 (GeneID 42721) | 1 | 1.70e6 | 1.63e6 | 9.86e5 | 1.14e6 | inactive
meigo (GeneID 42510) | 1 | 1.50e6 | 1.55e6 | 8.94e5 | 9.67e5 | inactive
Bcat (GeneID 32297) | 1 | 1.69e6 | 1.53e6 | 1.11e6 | 1.17e6 | inactive
Taf7 (GeneID 40934) | 1 | 1.66e6 | 1.80e6 | 1.17e6 | 1.23e6 | inactive
Vajk3 (GeneID 34812) | 1 | 1.31e6 | 1.42e6 | 1.27e6 | 1.25e6 | inactive
Hcs (GeneID 40659) | 1 | 1.43e6 | 1.58e6 | 1.10e6 | 1.23e6 | inactive
Hcs (GeneID 40659) | 2 | 1.45e6 | 1.56e6 | 1.25e6 | 1.33e6 | inactive
Sfp53D (GeneID 8673983) | 1 | 6.14e5 | – | 7.03e5 | – | inactive
CG4842 (GeneID 39817) | 1 | 1.63e6 | 1.79e6 | 1.22e6 | 1.40e6 | inactive
